From PubChem BioAssay AID1487 (National Center for Advancing Translational Sciences (NCATS), 2009)
“And” between values parts separate entries of the source, which are not always exact repeats. Equal entries are not always repeated. This is one part of the list. Shown are side measurements of this screen, not its main read-out; they come without a call. The list favours compounds with an active or inconclusive main result. The note in brackets gives the kind of curve behind each potency; many fits are weak.

Test: qHTS Assay for Modulators of Lamin A Splicing
Conditions: HeLa LMNA splicing GFP/RFP minigene ratio, 48 h
Procedure, shortened: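 S3 HeLa stable clones carrying a lamin A-EGFP splicing minigene plus DsRed2 were seeded at 600 cells/well in Opti-MEM with 2% FBS, pin-dosed and incubated 48 h at 37°C. Acumen cytometry (488 nm) gave the GFP/RFP total-intensity ratio.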

[1] = measured here: RFP viability control channel
[2] = measured here: GFP splicing reporter channel

COc1ccc(OC)c(NCc2cccn2-c2nnc(N3CCC(C)CC3)s2)c1
AC50 [1]: 2.51 µM [rising, full curve]

CCN(CC)S(=O)(=O)c1ccc(OCC(=O)NCc2ccccc2)cc1
AC50 [2]: 10 µM [rising, partial curve]

CCCOc1ccc(S(=O)(=O)NCc2ccc(OC)cc2)cc1
AC50 [1]: 14.1 µM [rising, partial curve]

Cc1ccc(Cl)cc1Nc1nc(-c2sc(NC(=O)c3cccc(Cl)c3)nc2C)cs1
AC50 [2]: 35.5 µM [falling, single point]
AC50 [1]: 15.8 µM [falling, single point]

O=C(Cc1ccccc1)N/N=C/c1ccc([N+](=O)[O-])s1
AC50 [2]: 22.4 µM [falling, single point]
AC50 [1]: 20 µM [falling, partial curve]

O=C(Nc1nccs1)c1ccc(COc2ccccc2Cl)o1
AC50 [2]: 0.00447 µM [falling, full curve, poor fit]
AC50 [1]: 0.00316 µM [falling, full curve, poor fit]

COc1ccccc1N1CCN(C(=O)c2nc(-c3ccc(C)cc3)n3c2CCCCC3)CC1
AC50 [2]: 35.5 µM [falling, single point]

O=C(c1cc2c(s1)-c1ccccc1OC2)N1CCc2ccccc2C1
AC50 [2]: 11.2 µM [rising, partial curve]
AC50 [1]: 15.8 µM [rising, partial curve]

O=S(=O)(c1ccc(Cl)c(NC(=S)N/N=C/c2ccc(O)cc2)c1)N1CCOCC1
AC50 [2]: 6.31 µM [rising, partial curve]
AC50 [1]: 35.5 µM [rising, partial curve]

O=C(CN1C2=NCCCN2c2ccccc21)c1ccc(Cl)cc1Cl
AC50 [2]: 11.2 µM [rising, partial curve, poor fit]
AC50 [1]: 14.1 µM [rising, partial curve, poor fit]

Cn1c(C(=O)N2CCCC(C(=O)NCCCSC3CCCCC3)C2)cc2sccc21 (centres undefined)
AC50 [1]: 12.6 µM [rising, partial curve]

CCOC(=O)C1C(=O)C=C(c2ccc(Br)cc2)CC1c1ccco1 (centres undefined)
AC50 [2]: 28.2 µM [falling, single point]
AC50 [1]: 17.8 µM [falling, single point]

CC(C)Cc1nc2oc3c(NCCCN4CCOCC4)ncnc3c2c2c1CCC2
AC50 [2]: 35.5 µM [rising, single point]

CC(C)[N+](C)(CCOC(=O)C1c2ccccc2Oc2ccccc21)C(C)C
AC50 [2]: 11.2 µM [rising, partial curve] and 35.5 µM [rising, single point]
AC50 [1]: 631 nM [rising, full curve] and 25.1 µM [rising, single point]

CS(=O)(=O)c1ccc(-c2nnn(CC(N)=O)n2)cc1
AC50 [1]: 3.16 µM [rising, single point]

CCOC(=O)c1c(-c2ccc(F)cc2)csc1NC(=O)CN1C(=O)NC2(CCCCC2C)C1=O (centres undefined)
AC50 [2]: 31.6 µM [rising, single point]

Cc1cccc(C(=O)Nc2ccc(C(=O)/C=C/c3cccs3)cc2)c1
AC50 [2]: 12.6 µM [rising, partial curve]
AC50 [1]: 20 µM [rising, single point]

CNc1nc(-c2ccccn2)nnc1-c1ccccc1
AC50 [1]: 8.91 µM [rising, partial curve]

CCN(CC)CCN1CCn2c3c(c4cc(C)ccc42)CCCC31 (centres undefined)
AC50 [1]: 20 µM [rising, single point]

Cc1nn(C)c(C)c1N1C(=O)c2cccc3c(N)ccc(c23)C1=O
AC50 [2]: 20 µM [falling, partial curve]
AC50 [1]: 35.5 µM [falling, single point]

COc1cccc(OCC(=O)O/N=C(\N)c2ccc(OC)c(OC)c2)c1
AC50 [1]: 15.8 µM [rising, partial curve]

CC(C)c1nc2ccc(C(=O)NCc3ccc(F)cc3)cc2o1
AC50 [2]: 0.562 µM [falling, full curve, poor fit]

COc1ccccc1Oc1ccc(N/C=C/C(=O)C(C)(C)C)cc1
AC50 [1]: 0.00398 µM [falling, full curve, poor fit]

CCNc1nc(C)nc2c1oc1ccccc12
AC50 [2]: 10 µM [rising, partial curve, poor fit]

CCc1ccc(N=CC23c4ccccc4C(c4ccccc42)C2C(=O)N(c4ccc(OC)cc4)C(=O)C23)cc1 (centres undefined)
AC50 [1]: 20 µM [falling, single point]

O=C(CNc1ccc2c(c1)OCO2)N/N=C\c1cn(Cc2ccc(F)cc2)c2ccccc12
AC50 [1]: 6.31 µM [rising, partial curve]

Cc1ccc(C(=O)C2CCN(CC(=O)N3CCN(c4ccc(F)cc4)CC3)CC2)cc1
AC50 [2]: 15.8 µM [falling, partial curve]
AC50 [1]: 25.1 µM [falling, partial curve]

N#C/C(=C/c1ccc(N2CCCCC2)o1)C(=O)Nc1ccc(Cl)cc1
AC50 [2]: 4.47 µM [falling, full curve]
AC50 [1]: 4.47 µM [falling, full curve]

Cc1cccc(C)c1NC(=O)c1c(C)oc2c1C1=NCCN1C=N2
AC50 [2]: 0.141 µM [falling, full curve, poor fit]

CCCc1cc(=O)[nH]c(SCC(=O)NCCCC(=O)OCC)n1
AC50 [2]: 0.501 µM [falling, single point]

COc1ccc(NC(=O)C2CC(=O)N(Cc3ccc(C)cc3)C2)cc1S(=O)(=O)N1CCCCC1 (centres undefined)
AC50 [2]: 1.12 µM [rising, partial curve]
AC50 [1]: 12.6 µM [rising, partial curve]

Cc1ccc[n+](C(C)C(=O)c2ccc(-c3ccccc3)cc2)c1 (centres undefined)
AC50 [2]: 10 µM [rising, partial curve, poor fit]
AC50 [1]: 15.8 µM [rising, partial curve]

NC(=S)NNc1cc(Cl)cc(Cl)c1
AC50 [2]: 22.4 µM [rising, partial curve, poor fit]
AC50 [1]: 20 µM [rising, single point]

Cc1c(Cl)cccc1-n1c(SCC(=O)NCc2ccccc2)nc2n[nH]c(C)c2c1=N
AC50 [1]: 17.8 µM [falling, partial curve, poor fit]
